The list shows a part of the results.
Legend:
Experiment in all cases: log2 fold change, soluble protein after heating vs DMSO (PISA); higher = thermal stabilisation; K562 cells, 10 uM, 30 min; active = over 0.2 and 3.5 SD of the protein, either way, in both replicates (recomputed)
[1] = compound: CS(=O)(=O)c1ccc(-c2cnc(N)c(C(=O)Nc3ccccc3)n2)cc1
Outline: (§1)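 Thermal stability values are relative to control samples and come from duplicates. They are expressed as log2 fold changes. For measurement, K562 cells (2×10^6 cells/mL) received 10 μM compound for 30 min, and aliquots were heated for 3 min over 48°C-58°C, pooled, and extracted at 4°C in PBS with 0.5% NP-40. Soluble protein, the supernatant after 21,000xg for 90 min, was quantified by TMTpro 16plex LC-MS/MS with equalised channel sums.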

The chains behind the UniProt entries cited, without tags or fusion partners. Where a name states a change or a piece, a line headed by the entry shows the natural chain unless it says otherwise.
UniProt Q6NT46: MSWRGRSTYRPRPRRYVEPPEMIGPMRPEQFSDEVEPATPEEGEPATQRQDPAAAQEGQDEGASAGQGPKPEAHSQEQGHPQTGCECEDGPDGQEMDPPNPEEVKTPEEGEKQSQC
UniProt Q96CU9: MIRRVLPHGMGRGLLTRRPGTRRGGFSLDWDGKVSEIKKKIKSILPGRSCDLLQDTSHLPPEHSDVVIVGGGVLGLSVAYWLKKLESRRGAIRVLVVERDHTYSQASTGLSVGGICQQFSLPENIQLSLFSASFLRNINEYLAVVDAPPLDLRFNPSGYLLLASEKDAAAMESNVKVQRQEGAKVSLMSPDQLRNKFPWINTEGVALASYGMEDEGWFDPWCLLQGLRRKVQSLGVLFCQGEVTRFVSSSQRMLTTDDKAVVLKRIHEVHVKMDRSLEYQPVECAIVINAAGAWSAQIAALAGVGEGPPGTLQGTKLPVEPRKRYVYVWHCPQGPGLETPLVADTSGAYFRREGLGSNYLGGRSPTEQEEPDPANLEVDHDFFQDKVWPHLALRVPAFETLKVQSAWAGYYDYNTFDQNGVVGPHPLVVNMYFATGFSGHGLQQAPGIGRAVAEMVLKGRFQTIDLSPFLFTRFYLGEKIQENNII
UniProt Q16595: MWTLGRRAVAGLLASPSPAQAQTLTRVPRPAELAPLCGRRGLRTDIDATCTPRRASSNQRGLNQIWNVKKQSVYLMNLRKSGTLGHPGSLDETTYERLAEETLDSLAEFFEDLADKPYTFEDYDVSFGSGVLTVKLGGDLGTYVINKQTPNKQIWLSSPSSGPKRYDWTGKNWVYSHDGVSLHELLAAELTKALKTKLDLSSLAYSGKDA
UniProt Q9BQS8: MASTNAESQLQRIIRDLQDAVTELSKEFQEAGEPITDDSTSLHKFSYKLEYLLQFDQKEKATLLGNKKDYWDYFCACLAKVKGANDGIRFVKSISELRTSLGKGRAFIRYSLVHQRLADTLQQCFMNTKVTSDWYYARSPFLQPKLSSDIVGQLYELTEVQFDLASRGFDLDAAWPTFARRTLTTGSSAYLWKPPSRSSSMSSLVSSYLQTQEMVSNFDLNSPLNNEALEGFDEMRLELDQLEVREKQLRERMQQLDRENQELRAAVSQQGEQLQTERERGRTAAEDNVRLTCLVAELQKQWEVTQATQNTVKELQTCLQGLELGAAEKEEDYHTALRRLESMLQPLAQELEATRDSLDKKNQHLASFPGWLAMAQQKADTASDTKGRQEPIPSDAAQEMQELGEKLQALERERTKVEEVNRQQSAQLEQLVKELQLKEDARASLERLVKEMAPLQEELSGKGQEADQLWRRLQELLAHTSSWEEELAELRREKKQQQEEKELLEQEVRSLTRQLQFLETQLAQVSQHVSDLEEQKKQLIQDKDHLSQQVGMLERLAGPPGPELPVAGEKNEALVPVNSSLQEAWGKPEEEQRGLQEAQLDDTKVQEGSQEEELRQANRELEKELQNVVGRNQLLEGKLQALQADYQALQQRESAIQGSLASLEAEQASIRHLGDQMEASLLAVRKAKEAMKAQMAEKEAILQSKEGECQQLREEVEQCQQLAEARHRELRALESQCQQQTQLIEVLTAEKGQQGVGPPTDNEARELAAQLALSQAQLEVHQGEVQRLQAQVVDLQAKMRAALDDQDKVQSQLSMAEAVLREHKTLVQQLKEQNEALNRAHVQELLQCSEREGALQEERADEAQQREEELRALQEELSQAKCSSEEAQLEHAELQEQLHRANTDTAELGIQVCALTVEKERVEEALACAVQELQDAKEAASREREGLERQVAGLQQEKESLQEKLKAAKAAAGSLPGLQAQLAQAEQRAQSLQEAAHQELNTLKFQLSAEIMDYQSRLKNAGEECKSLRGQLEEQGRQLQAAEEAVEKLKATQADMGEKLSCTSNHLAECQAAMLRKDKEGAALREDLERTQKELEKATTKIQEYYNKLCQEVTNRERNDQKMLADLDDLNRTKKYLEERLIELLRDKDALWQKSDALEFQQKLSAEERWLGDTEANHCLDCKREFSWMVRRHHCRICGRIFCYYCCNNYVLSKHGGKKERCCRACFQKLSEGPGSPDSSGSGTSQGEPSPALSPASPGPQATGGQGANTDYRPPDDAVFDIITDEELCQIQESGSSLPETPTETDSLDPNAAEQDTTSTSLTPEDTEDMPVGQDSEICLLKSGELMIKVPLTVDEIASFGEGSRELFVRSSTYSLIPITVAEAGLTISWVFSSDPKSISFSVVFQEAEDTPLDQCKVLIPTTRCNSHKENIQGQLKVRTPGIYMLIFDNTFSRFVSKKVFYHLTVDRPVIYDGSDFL
UniProt Q7L5D6: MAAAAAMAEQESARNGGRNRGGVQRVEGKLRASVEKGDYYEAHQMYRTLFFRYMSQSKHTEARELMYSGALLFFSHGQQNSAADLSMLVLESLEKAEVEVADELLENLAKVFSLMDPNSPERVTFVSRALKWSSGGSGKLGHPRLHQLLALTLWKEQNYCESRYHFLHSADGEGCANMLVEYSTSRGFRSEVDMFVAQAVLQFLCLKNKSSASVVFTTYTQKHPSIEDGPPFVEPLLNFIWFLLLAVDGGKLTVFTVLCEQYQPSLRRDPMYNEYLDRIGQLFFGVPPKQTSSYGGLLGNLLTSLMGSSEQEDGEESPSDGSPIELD
UniProt P55789: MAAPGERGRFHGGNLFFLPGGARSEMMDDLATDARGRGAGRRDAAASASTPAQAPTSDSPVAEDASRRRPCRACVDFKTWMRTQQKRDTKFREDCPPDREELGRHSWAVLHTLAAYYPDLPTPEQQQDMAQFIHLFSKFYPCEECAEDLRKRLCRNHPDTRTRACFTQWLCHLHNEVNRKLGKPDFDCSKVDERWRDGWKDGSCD
UniProt Q495W5: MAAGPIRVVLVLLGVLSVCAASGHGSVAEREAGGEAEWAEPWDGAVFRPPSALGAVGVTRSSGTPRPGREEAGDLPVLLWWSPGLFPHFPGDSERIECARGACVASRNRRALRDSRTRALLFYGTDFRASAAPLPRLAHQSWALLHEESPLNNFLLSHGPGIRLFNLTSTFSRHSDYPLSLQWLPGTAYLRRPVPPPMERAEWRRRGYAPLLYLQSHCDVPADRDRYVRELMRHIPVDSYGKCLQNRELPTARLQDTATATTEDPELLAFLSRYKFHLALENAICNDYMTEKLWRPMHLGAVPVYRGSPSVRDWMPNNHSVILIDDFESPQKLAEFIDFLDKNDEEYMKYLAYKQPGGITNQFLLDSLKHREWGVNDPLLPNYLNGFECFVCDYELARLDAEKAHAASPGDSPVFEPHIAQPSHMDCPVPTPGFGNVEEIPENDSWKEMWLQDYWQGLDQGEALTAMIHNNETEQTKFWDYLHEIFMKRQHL
UniProt P51114, whole entry, looked up: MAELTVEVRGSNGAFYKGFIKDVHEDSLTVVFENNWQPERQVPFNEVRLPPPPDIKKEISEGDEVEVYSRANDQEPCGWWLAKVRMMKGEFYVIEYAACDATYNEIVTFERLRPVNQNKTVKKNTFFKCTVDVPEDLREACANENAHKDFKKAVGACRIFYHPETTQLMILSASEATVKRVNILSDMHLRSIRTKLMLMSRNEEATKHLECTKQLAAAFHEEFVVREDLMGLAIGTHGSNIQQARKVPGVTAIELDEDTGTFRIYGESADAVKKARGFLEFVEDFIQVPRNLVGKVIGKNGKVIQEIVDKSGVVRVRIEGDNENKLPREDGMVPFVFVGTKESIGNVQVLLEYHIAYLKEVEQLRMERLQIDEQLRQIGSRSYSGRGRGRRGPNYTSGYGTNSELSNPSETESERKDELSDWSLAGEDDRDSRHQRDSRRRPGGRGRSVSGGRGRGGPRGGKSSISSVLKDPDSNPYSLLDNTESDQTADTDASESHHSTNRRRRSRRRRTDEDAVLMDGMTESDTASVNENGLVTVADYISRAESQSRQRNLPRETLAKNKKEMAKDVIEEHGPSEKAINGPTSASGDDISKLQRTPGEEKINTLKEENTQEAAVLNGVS
UniProt P57678: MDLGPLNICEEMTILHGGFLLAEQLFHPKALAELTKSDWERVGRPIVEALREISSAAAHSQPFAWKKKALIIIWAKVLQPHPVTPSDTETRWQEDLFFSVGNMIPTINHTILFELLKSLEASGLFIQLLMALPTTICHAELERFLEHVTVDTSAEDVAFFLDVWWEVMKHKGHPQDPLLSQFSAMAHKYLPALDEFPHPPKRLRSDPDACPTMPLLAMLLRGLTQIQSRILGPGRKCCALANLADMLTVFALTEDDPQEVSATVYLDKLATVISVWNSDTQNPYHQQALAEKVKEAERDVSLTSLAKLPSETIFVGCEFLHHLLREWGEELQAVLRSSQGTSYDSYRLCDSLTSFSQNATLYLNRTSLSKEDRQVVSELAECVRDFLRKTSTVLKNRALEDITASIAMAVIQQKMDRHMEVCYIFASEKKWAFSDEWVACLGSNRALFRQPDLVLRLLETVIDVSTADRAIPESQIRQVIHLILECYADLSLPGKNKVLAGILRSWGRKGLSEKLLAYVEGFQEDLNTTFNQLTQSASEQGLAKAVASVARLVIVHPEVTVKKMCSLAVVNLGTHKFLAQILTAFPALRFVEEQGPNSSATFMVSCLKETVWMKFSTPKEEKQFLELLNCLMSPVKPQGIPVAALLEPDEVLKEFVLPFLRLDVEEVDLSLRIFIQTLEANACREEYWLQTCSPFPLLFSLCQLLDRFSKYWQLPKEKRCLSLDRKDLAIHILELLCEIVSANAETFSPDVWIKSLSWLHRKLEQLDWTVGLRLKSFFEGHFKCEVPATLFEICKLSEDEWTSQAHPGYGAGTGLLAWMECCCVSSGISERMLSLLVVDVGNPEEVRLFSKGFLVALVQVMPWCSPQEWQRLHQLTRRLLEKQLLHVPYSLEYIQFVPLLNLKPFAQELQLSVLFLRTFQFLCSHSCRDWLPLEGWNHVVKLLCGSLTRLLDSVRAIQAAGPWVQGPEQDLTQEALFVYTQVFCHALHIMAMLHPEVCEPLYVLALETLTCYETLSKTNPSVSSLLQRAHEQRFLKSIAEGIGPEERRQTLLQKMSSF
UniProt P02792: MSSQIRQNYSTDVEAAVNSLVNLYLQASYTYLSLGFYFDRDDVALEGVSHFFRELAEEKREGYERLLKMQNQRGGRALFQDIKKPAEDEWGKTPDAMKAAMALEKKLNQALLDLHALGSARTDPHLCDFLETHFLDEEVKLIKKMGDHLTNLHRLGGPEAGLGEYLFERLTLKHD
UniProt O95749: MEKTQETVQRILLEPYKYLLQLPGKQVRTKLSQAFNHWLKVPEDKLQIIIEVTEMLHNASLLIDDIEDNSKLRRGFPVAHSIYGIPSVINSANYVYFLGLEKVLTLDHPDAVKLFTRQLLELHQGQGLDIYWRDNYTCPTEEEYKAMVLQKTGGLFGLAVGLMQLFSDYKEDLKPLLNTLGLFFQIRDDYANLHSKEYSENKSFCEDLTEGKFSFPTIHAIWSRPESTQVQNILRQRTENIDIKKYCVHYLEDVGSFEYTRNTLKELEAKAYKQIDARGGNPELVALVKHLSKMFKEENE
UniProt Q9UET6: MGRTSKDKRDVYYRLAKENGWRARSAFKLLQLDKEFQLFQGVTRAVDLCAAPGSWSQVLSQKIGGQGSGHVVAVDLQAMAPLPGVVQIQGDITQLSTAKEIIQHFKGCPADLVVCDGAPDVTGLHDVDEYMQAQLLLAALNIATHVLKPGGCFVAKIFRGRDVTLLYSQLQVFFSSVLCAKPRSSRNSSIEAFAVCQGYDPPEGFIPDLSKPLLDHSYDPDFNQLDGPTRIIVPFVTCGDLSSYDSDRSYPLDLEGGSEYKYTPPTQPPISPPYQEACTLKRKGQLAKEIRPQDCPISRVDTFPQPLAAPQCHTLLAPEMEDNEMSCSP
UniProt P34059: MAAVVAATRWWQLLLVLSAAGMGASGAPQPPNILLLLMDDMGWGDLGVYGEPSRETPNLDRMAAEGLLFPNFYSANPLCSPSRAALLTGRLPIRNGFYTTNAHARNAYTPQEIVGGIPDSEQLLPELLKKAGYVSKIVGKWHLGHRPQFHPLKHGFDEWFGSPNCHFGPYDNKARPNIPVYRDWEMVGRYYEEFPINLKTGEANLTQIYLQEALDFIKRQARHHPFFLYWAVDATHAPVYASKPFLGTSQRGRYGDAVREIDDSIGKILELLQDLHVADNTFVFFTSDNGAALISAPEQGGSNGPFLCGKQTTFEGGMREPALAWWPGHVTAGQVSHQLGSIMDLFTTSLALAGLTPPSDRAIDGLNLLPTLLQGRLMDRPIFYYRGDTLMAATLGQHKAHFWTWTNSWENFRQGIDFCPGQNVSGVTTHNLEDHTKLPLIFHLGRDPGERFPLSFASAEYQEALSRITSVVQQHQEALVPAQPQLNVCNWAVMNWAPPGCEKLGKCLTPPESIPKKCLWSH

crizotinib = compound: C[C@@H](Oc1cc(-c2cnn(C3CCNCC3)c2)cnc1N)c1c(Cl)ccc(F)c1Cl [crizotinib]
Outline: as §1

[2] = compound: C[C@@H]1COCCN1C2=NC(=NC(=C2)C3(CC3)S(=O)(=O)C)C4=C5C=CNC5=CC=C4
Outline: as §1

[3] = compound: C[C@H](C1=CC=C(C=C1)C(=O)NC2=C3C=CNC3=NC=C2)N
Outline: as §1

duvelisib = compound: C[C@H](Nc1ncnc2nc[nH]c12)c1cc2cccc(Cl)c2c(=O)n1-c1ccccc1 [duvelisib]
Outline: as §1

gandotinib = compound: Cc1cc(Nc2cc(CN3CCOCC3)c3nc(C)c(Cc4ccc(Cl)cc4F)n3n2)n[nH]1 [gandotinib]
Outline: as §1

tozasertib = compound: Cc1cc(Nc2cc(N3CCN(C)CC3)nc(Sc3ccc(NC(=O)C4CC4)cc3)n2)n[nH]1 [tozasertib]
Outline: as §1

[4] = compound: Cc1cc(SCc2sc(-c3ccc(C(F)(F)F)cc3)nc2C)ccc1OCC(=O)O
Outline: as §1

doramapimod = compound: Cc1ccc(-n2nc(C(C)(C)C)cc2NC(=O)Nc2ccc(OCCN3CCOCC3)c3ccccc23)cc1 [doramapimod]
Outline: as §1

ispinesib = compound: Cc1ccc(C(=O)N(CCCN)[C@@H](c2nc3cc(Cl)ccc3c(=O)n2Cc2ccccc2)C(C)C)cc1 [ispinesib]
Outline: as §1

bafetinib = compound: Cc1ccc(NC(=O)c2ccc(CN3CC[C@H](N(C)C)C3)c(C(F)(F)F)c2)cc1Nc1nccc(-c2cncnc2)n1 [bafetinib]
Outline: as §1

[5] = compound: Cc1cccc(CC(=O)N2CCc3c2ccc(-c2cn(C)c4ncnc(N)c24)c3F)n1
Outline: as §1

nilotinib = compound: Cc1cn(-c2cc(NC(=O)c3ccc(C)c(Nc4nccc(-c5cccnc5)n4)c3)cc(C(F)(F)F)c2)cn1 [nilotinib]
Outline: as §1

[6] = compound: Cc1nc(Nc2n[nH]c3c2CN(C(=O)N[C@H](CN(C)C)c2ccccc2)C3(C)C)c2sccc2n1
Outline: as §1

dasatinib = compound: Cc1nc(Nc2ncc(C(=O)Nc3c(C)cccc3Cl)s2)cc(N2CCN(CCO)CC2)n1 [dasatinib]
Outline: as §1

[7] = compound: Cc1ncc(-c2ccnc(Nc3ccc(S(C)(=O)=O)cc3)n2)n1C(C)C
Outline: as §1

[8] = compound: Cn1cc(-c2ccc3c(c2)CCN3C(=O)Cc2cccc(C(F)(F)F)c2)c2c(N)ncnc21
Outline: as §1

[9] = compound: Cn1cc(-c2ccc3nnc(C(F)(F)c4ccc5ncccc5c4)n3n2)cn1
Outline: as §1

tipifarnib = compound: Cn1cncc1[C@@](N)(c1ccc(Cl)cc1)c1ccc2c(c1)c(-c1cccc(Cl)c1)cc(=O)n2C [tipifarnib]
Outline: as §1

mubritinib = compound: FC(F)(F)c1ccc(/C=C/c2nc(COc3ccc(CCCCn4ccnn4)cc3)co2)cc1 [mubritinib]
Outline: as §1

Measured: log2 fold change

GAGE2A (UniProt Q6NT46)
inactive: [1] 0.015 | crizotinib 0.066 | [2] 0.16 | [3] 0.139 | duvelisib 0.097 | gandotinib -0.002 | tozasertib -0.092 | [4] 0.026 | doramapimod 0.057 | ispinesib -0.016 | bafetinib -0.084 | [5] -0.036 | nilotinib 0.008 | [6] -0.004 | dasatinib 0.104 | [7] 0.031 | [8] 0.011 | [9] 0.014 | tipifarnib 0.032 | mubritinib 0.009

FOXRED1 (UniProt Q96CU9)
inactive: [1] 0.003 | crizotinib -0.006 | [2] 0.05 | [3] -0.095 | duvelisib 0.061 | gandotinib 0.002 | tozasertib 0.032 | [4] -0.051 | doramapimod -0.016 | ispinesib -0.128 | bafetinib -0.06 | [5] 0.06 | nilotinib 0.026 | [6] 0.011 | dasatinib -0.099 | [7] -0.022 | [8] 0.038 | [9] 0.089 | tipifarnib -0.063 | mubritinib 0.05

FXN (UniProt Q16595)
inactive: [1] -0.022 | crizotinib 0.13 | [2] 0.129 | [3] -0.135 | duvelisib 0.044 | gandotinib 0.063 | tozasertib 0.067 | [4] 0.017 | doramapimod 0.03 | ispinesib 0.262 | bafetinib 0 | [5] -0.023 | nilotinib 0.027 | [6] 0.034 | dasatinib 0.002 | [7] 0 | [8] 0.089 | [9] 0.065 | tipifarnib -0.054 | mubritinib -0.027

FYCO1 isoform 4 (UniProt Q9BQS8)
inactive: [1] -0.063 | crizotinib -0.143 | [2] -0.035 | [3] 0.092 | duvelisib 0.073 | gandotinib 0.069 | tozasertib 0.012 | [4] 0.041 | doramapimod 0.063 | ispinesib -0.011 | bafetinib -0.105 | [5] -0.052 | nilotinib -0.014 | [6] -0.13 | dasatinib -0.249 | [7] 0.075 | [8] 0.028 | [9] 0.034 | tipifarnib 0.012 | mubritinib -0.087

Reprinted at random: 2 records from the list.
GAGE2A (UniProt Q6NT46)
inactive: [1] 0.015 | crizotinib 0.066 | [2] 0.16 | [3] 0.139 | duvelisib 0.097 | gandotinib -0.002 | tozasertib -0.092 | [4] 0.026 | doramapimod 0.057 | ispinesib -0.016 | bafetinib -0.084 | [5] -0.036 | nilotinib 0.008 | [6] -0.004 | dasatinib 0.104 | [7] 0.031 | [8] 0.011 | [9] 0.014 | tipifarnib 0.032 | mubritinib 0.009

FYCO1 isoform 4 (UniProt Q9BQS8)
inactive: [1] -0.063 | crizotinib -0.143 | [2] -0.035 | [3] 0.092 | duvelisib 0.073 | gandotinib 0.069 | tozasertib 0.012 | [4] 0.041 | doramapimod 0.063 | ispinesib -0.011 | bafetinib -0.105 | [5] -0.052 | nilotinib -0.014 | [6] -0.13 | dasatinib -0.249 | [7] 0.075 | [8] 0.028 | [9] 0.034 | tipifarnib 0.012 | mubritinib -0.087

(next part)

GET4 (UniProt Q7L5D6)
inactive: [1] 0.049 | crizotinib -0.031 | [2] 0.064 | [3] 0.051 | duvelisib 0.025 | gandotinib -0.012 | tozasertib 0.01 | [4] 0.034 | doramapimod 0.016 | ispinesib -0.023 | bafetinib -0.03 | [5] 0.008 | nilotinib 0.014 | [6] 0.008 | dasatinib -0.07 | [7] 0.02 | [8] 0.009 | [9] -0.02 | tipifarnib 0.005 | mubritinib 0.048

GFER (UniProt P55789)
inactive: [1] -0.004 | crizotinib 0.109 | [2] -0.099 | [3] -0.135 | duvelisib -0.022 | gandotinib -0.094 | tozasertib 0 | [4] 0.005 | doramapimod -0.067 | ispinesib 0.018 | bafetinib -0.071 | [5] 0.027 | nilotinib 0.013 | [6] 0.061 | dasatinib -0.043 | [7] 0.018 | [8] -0.01 | [9] 0.086 | tipifarnib 0.029 | mubritinib 0.022

FUT11 (UniProt Q495W5)
inactive: [1] -0.056 | crizotinib 0.067 | [2] 0.009 | [3] -0.043 | duvelisib 0.046 | gandotinib -0.001 | tozasertib 0.063 | [4] -0.053 | doramapimod 0.022 | ispinesib 0.034 | bafetinib -0.127 | [5] -0.069 | nilotinib -0.084 | [6] 0.274 | dasatinib 0.069 | [7] -0.004 | [8] -0.131 | [9] 0.019 | tipifarnib 0.088 | mubritinib 0.029

FXR1 (UniProt P51114)
inactive: [1] 0.032 | crizotinib -0.086 | [2] -0.463 | [3] 0.407 | duvelisib -0.091 | gandotinib 0.237 | tozasertib -0.032 | [4] 0.117 | doramapimod 0.099 | ispinesib -0.228 | bafetinib 0.115 | [5] -0.054 | nilotinib -0.119 | [6] -0.177 | dasatinib 0.036 | [7] -0.029 | [8] -0.207 | [9] -0.253 | tipifarnib 0.024 | mubritinib -0.178

GEMIN4 (UniProt P57678)
inactive: [1] 0.062 | crizotinib -0.204 | [2] -0.278 | [3] 0.588 | duvelisib -0.281 | gandotinib 0.007 | tozasertib 0.032 | [4] 0.095 | doramapimod 0.163 | ispinesib -0.169 | bafetinib 0.565 | [5] 0.211 | nilotinib -0.01 | [6] 0.195 | dasatinib 0.05 | [7] -0.027 | [8] -0.491 | [9] -0.081 | tipifarnib 0.264 | mubritinib -0.281

GALNT5 (UniProt Q7Z7M9)
inactive: [1] 0.013 | crizotinib 0.111 | [2] 0.024 | [3] -0.048 | duvelisib 0.031 | gandotinib 0.038 | tozasertib 0.012 | [4] -0.017 | doramapimod 0.01 | ispinesib 0.084 | bafetinib -0.039 | [5] -0.036 | nilotinib 0.036 | [6] -0.083 | dasatinib 0.057 | [7] 0 | [8] 0.002 | [9] 0.031 | tipifarnib -0.02 | mubritinib 0.056

FTL (UniProt P02792)
inactive: [1] -0.14 | crizotinib -0.099 | [2] -0.235 | [3] 0.001 | duvelisib -0.013 | gandotinib 0.072 | tozasertib 0.054 | [4] 0.064 | doramapimod 0.068 | ispinesib -0.071 | bafetinib -0.107 | [5] -0.02 | nilotinib 0.073 | [6] 0.043 | dasatinib -0.122 | [7] -0.097 | [8] -0.084 | [9] -0.117 | tipifarnib 0.057 | mubritinib -0.042

GGPS1 (UniProt O95749)
inactive: [1] -0.005 | crizotinib 0.04 | [2] 0.001 | [3] 0.031 | duvelisib 0.062 | gandotinib -0.083 | tozasertib -0.041 | [4] -0.041 | doramapimod 0.011 | ispinesib 0 | bafetinib -0.015 | [5] -0.151 | nilotinib -0.008 | [6] 0.012 | dasatinib 0.088 | [7] -0.01 | [8] -0.063 | [9] 0.014 | tipifarnib 0.05 | mubritinib 0

GDAP1 (UniProt Q8TB36)
inactive: [1] -0.042 | crizotinib 0.036 | [2] 0.077 | [3] 0.006 | duvelisib 0 | gandotinib 0.161 | tozasertib 0.009 | [4] -0.08 | doramapimod 0.091 | ispinesib 0.105 | bafetinib -0.071 | [5] 0.028 | nilotinib 0.039 | [6] -0.081 | dasatinib -0.03 | [7] 0.014 | [8] 0.051 | [9] -0.07 | tipifarnib 0.04 | mubritinib 0.034

FTSJ1 isoform 2 (UniProt Q9UET6)
inactive: [1] 0.093

GALNS (UniProt P34059)
inactive: [1] 0.006 | crizotinib 0.062 | [2] 0.119 | [3] -0.057 | duvelisib 0.087 | gandotinib 0.053 | tozasertib -0.031 | [4] 0.014 | doramapimod 0.025 | ispinesib 0.088 | bafetinib 0.024 | [5] -0.006 | nilotinib 0.006 | [6] -0.012 | dasatinib 0.061 | [7] 0.108 | [8] 0.001 | [9] -0.074 | tipifarnib -0.124 | mubritinib 0.013

FRG1 (UniProt Q14331)
inactive: [1] 0.021 | crizotinib -0.019 | [2] -0.11 | [3] 0.151 | duvelisib -0.076 | gandotinib 0.047 | tozasertib 0 | [4] 0.069 | doramapimod 0.015 | ispinesib -0.118 | bafetinib 0.066 | [5] 0 | nilotinib -0.02 | [6] -0.015 | dasatinib -0.017 | [7] 0.02 | [8] -0.061 | [9] -0.028 | tipifarnib 0.034 | mubritinib 0.009

FRYL (UniProt O94915)
inactive: [1] 0.022 | crizotinib -0.016 | [2] 0.01 | [3] 0.039 | duvelisib -0.032 | gandotinib -0.011 | tozasertib 0.02 | [4] 0.054 | doramapimod 0.057 | ispinesib -0.004 | bafetinib 0.064 | [5] 0.029 | nilotinib 0.002 | [6] 0.015 | dasatinib -0.042 | [7] -0.021 | [8] -0.063 | [9] -0.013 | tipifarnib 0.028 | mubritinib 0.034

Reference: the supplement of paper PMC10849652
